The nature of the assay: qHTS Assay for Lipid Storage Modulators in Drosophila S3 Cells.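 On cell number change: cells counted by Cell Tracker Red CMTPX staining in the red channel.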 The note with it: BODIPY lipid droplet fluorescence, 18-24 h; for cell number change: measured here: cell count max response, cells fed with added oleic acid. In a few lines: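 Drosophila S3 cells got compounds at several concentrations plus oleic acid (400 uM solution). Laser-scanning cytometry with 488 nm excitation read lipid droplets at 500-530 nm and cells at 575-640 nm. Percent activity was relative to 20 uM Triacsin C.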

[1] abbreviates: measured here: cell number channel AC50, cells fed with added oleic acid.
Setting [2] is: measured here: lipid fluorescence (Fed channel) AC50, cells fed with added oleic acid.

The other results are listed elsewhere or left out. Shown are side measurements of this screen, not its main read-out; they come without a call. The list favours compounds with an active or inconclusive main result. Words in brackets tell the shape of the fitted curve; partial curves, single points and poor fits give uncertain potencies.

Turning to `CC(=O)C1C(c2ccc(C)cc2)c2c(n[nH]c2C)CC1(C)O` (stereo unspecified), the cell number change was -18.1%. In addition, under setting [1], the AC50 (as a rule, the concentration giving half of the maximal activity seen) is 0.146 µM [falling, full curve]. In addition, the AC50 under setting [2] was 1.46 µM [falling, partial curve].

As to `COc1ccc(/C=C2\SC(=O)N=C2N)cc1`, the cell number change is -33.3%. Further, under setting [1], the AC50 was 32.6 µM [falling, single point].

In the case of `COc1ccc(NC(=O)CS(=O)(=O)c2cn(CC(=O)N3CCOCC3)c3ccccc23)cc1OC`, the cell number change is -10.1%.

For `O=C(CSc1nnc(CNC(=O)c2cccs2)o1)Nc1cccc(C(F)(F)F)c1`, the AC50 is, setting by setting: under setting [1], 6.51 µM [falling, single point]; under setting [2], 6.51 µM [falling, single point].

`Cn1c(=O)oc2cc(S(=O)(=O)CCC(=O)Nc3ccccc3)ccc21`: the cell number change was -0.59%.

For `Fc1ccccc1-n1cn[nH]c1=S`, the AC50 under setting [1] is 0.731 µM [falling, full curve, poor fit].

Regarding `Cc1ccc(CNC(=O)[C@H](C)NC(=O)C2CCN(C(=O)[C@@H](N)CC(C)C)CC2)cc1`, the cell number change came to 2.91%. Also, the AC50 under setting [2] was 29.1 µM [rising, single point].

With `Cc1cccc(N(C(=O)c2csnn2)C(C(=O)NCc2ccccc2)c2ccncc2)c1` (stereo unspecified), the cell number change was found to be 28.4%. Further, under setting [2], the AC50 is 4.11 µM [rising, full curve].

On to `O=C1/C(=C/c2cccnc2)Oc2cc(OS(=O)(=O)c3ccc(F)cc3)ccc21`, for which the cell number change turned out to be 7.12%. Also, the AC50 under setting [2] is 5.17 µM [rising, single point].

As for `Cc1ccc(C)c(S(=O)(=O)N2CCN(C(=O)Cn3c(=O)cnc4ccccc43)CC2)c1`, the cell number change was -50%. Besides, the AC50 under setting [1] was 25.9 µM [falling, single point].

With `O=C(c1ccc(Cn2c(=S)[nH]c3ccc(N4CCOCC4)cc3c2=O)cc1)N1CCC(N2CCCCC2)CC1`, the cell number change was -42.8%. The AC50 under setting [1] was 6.51 µM [falling, single point]. Further, the AC50 under setting [2] was 4.11 µM [falling, partial curve, poor fit].

Take `CCCOC(=O)c1ccc(NC(=O)c2ccoc2C)cc1`: the cell number change was -36.4%. Besides, the AC50 under setting [1] is 29.1 µM [falling, single point]. Under setting [2], the AC50 was 29.1 µM [falling, single point].

Regarding `Cc1ccccc1NC(=O)c1cccc(N2C(=O)C3CCC(C)CC3C2=O)c1` (stereo unspecified), the cell number change was -7.39%.

For `Cc1cccc(CS(=O)(=O)c2ncc(Cl)c(C(=O)NCc3ccc4c(c3)OCO4)n2)c1`, the AC50 under setting [2] was 5.17 µM [falling, partial curve].

Take `Cc1cnc(NC(=O)CSc2c(Cl)cccc2Cl)s1`: the AC50 under setting [2] is 0.58 µM [rising, single point].

Regarding `Cc1ccc(/C=C/C2=Cc3c(sc(NC(=O)CSc4n[nH]c(N)n4)c3C#N)C(C)(C)C2)o1`, the cell number change is -2.76%. For the same compound, the AC50 under setting [2] was 9.2 µM [falling, partial curve].

For `COc1ccc(C(=O)C2CCCN(C(=O)c3noc4c3CCCC4)C2)cc1F` (stereo unspecified), the cell number change was -7.88%. Moreover, the concentration at half-maximal activity (AC50) under setting [2] was 13 µM [falling, partial curve].

Regarding `CCCCC(CC)CNC(=O)c1ccc2c(c1)OCO2` (stereo unspecified), the cell number change was -7.85%. The AC50 under setting [2] was 0.517 µM [rising, full curve, poor fit].

Turning to `O=C(CCc1ccncc1)N1CCCC(Nc2ccc(F)cc2)C1` (stereo unspecified), the cell number change came out at 12.6%.

In the case of `CC(C)C(NC(=O)c1ccccc1)C(=O)OCC(=O)N1CCN(c2ccccc2)CC1` (stereo unspecified), the cell number change is -21.6%. The AC50 under setting [2] is 0.231 µM [falling, full curve].

For `COc1cccc(CN(C)C(=O)c2cc(COc3ccc(-n4cncn4)cc3)on2)c1`, under setting [2], the concentration at half-maximal activity (AC50) is 1.3 µM [rising, partial curve].

As to `CCCN1CCN(C(=O)c2ccc(Sc3ccc(C)cc3)c(NC(C)=O)c2)CC1`, the cell number change is -18.8%.

Consider `CCC(Oc1ccc2ccccc2c1)C(=O)O` (stereo unspecified), for which the cell number change came out at 15.8%. Besides, the AC50 under setting [2] is 0.651 µM [rising, partial curve, poor fit].

`O=C(Nc1ccc(N2CCOCC2)nc1)c1c(F)cccc1F`: the cell number change was 2.12%. The AC50 under setting [1] was 6.51 µM [falling, single point].

On to `O=C1CSC(c2ccc(Cl)cc2)N1` (stereo unspecified), for which the cell number change came to 14.1%.

As to `CCNC(=O)CON=C1c2ccccc2-c2ccccc21`, the cell number change stood at 39.7%. For the same compound, under setting [1], the AC50 is 10.3 µM [rising, partial curve].

Regarding `NS(=O)(=O)c1cccc2c1c([N+](=O)[O-])cc1nc(O)c(O)nc12`, the cell number change was -31.5%. Also, the AC50 under setting [1] was 14.6 µM [falling, partial curve].

With `O=[N+]([O-])c1nn(-c2ccc3c(c2)OCCO3)n(O)c1=NCc1ccc(F)cc1`, the cell number change turned out to be 4.93%.

`O=c1[nH]c2ccccc2n1CCCOc1ccccc1`: the cell number change was -17.5%. Besides, the AC50 under setting [2] is 0.651 µM [rising, full curve].

For `CSC1=N/C(=C\C=C\c2cccs2)C(=O)S1`, the cell number change is -122%. In addition, the AC50 under setting [1] was 14.6 µM [falling, partial curve]. Moreover, the AC50 under setting [2] is 14.6 µM [falling, partial curve].

In the case of `COc1ccccc1CN1CCCC(N2CCN(c3ccccc3OC)CC2)C1` (stereo unspecified), the cell number change was 5.5%. Besides, under setting [2], the AC50 is 29.1 µM [rising, single point].

As to `O=C(c1ccco1)N1CCN(C(=O)C2CC(c3ccc(Cl)cc3)=NO2)CC1` (stereo unspecified), the cell number change turned out to be 1.37%. Besides, the AC50 under setting [2] is 6.51 µM [rising, single point].

For the compound `COc1ccc(N2CCN(C(=O)c3cccc(S(=O)(=O)N4CCCc5ccccc54)c3)CC2)cc1`, the cell number change is -9.52%.

As for `CN1CCN(S(=O)(=O)c2ccc3c(c2)C(C)(C)C(=O)N3C)CC1`, the cell number change worked out at 13.8%. Also, the AC50 under setting [2] was 0.00517 µM [falling, full curve, poor fit].

On to `COC(=O)C1CCN(c2cc(=O)n(-c3ccc(OC)cc3)c(=O)[nH]2)CC1`, for which the cell number change was -80.2%. Moreover, under setting [1], the AC50 was 29.1 µM [falling, single point]. Moreover, the AC50 under setting [2] was 0.366 µM [falling, single point].

With `COc1ccc(/C=C/C(=O)NCc2cn(C)nc2C)cc1COc1ccc(Cl)cc1Br`, the cell number change was -35.9%. For the same compound, the AC50 under setting [1] was 10.3 µM [falling, partial curve, poor fit]. Also, under setting [2], the AC50 was 29.1 µM [falling, single point].

As to `COc1ccc(/C=C/C(=O)O)cc1COc1ccccc1C`, the cell number change is -0.965%. In addition, under setting [2], the AC50 is 23.1 µM [rising, partial curve].

As for `CC(=O)c1cccc(NC(=S)NNC(=O)c2ccc(C)c([N+](=O)[O-])c2)c1`, the cell number change is 123%. For the same compound, the AC50 under setting [1] was 29.1 µM [rising, single point].

`O=C(COC(=O)/C=C/c1cccc([N+](=O)[O-])c1)NCC1CCCO1` (stereo unspecified): the cell number change is -40.3%. Also, the AC50 under setting [1] was 14.6 µM [falling, partial curve].

Turning to `Cc1ccc(C(=O)NC2CCCCNC2=O)cc1` (stereo unspecified), the cell number change stood at 40.5%. Also, under setting [1], the AC50 was 2.91 µM [rising, partial curve]. Moreover, the AC50 under setting [2] is 5.8 µM [rising, full curve].

In the case of `CCOC(=O)c1c(C)[nH]c(NC(=O)NNC(=O)c2ccc(OC)cc2)c1C`, the cell number change turned out to be 1.87%. Also, the AC50 under setting [2] is 18.4 µM [rising, partial curve, poor fit].

On to `CC(C)c1ccc(NC(=O)C(c2ccc3c(c2)OCO3)N2CCN(C(=O)c3ccco3)CC2)cc1` (stereo unspecified), for which the cell number change is -24.3%. For the same compound, the AC50 under setting [2] was 29.1 µM [falling, single point].

`O=C(COC(=O)/C=C/c1ccc(Cl)cc1Cl)Nc1ccc2c(c1)OCCO2`: the cell number change was determined as 163%.

Turning to `O=C1CN(CC(=O)Nc2cccc(Cl)c2Cl)c2ccccc2N1`, the AC50 under setting [1] is 0.731 µM [rising, single point].

`COc1ccccc1C(=O)Nc1nnc(S(=O)(=O)N(C)Cc2ccccc2)s1`: the cell number change is 19.8%.

For the compound `COc1c(Cl)ccc(Cl)c1C(=O)NC(=O)N1CCOCC1`, the cell number change came out at 2.69%. In addition, the AC50 under setting [2] is 0.0058 µM [falling, full curve, poor fit].

In the case of `COc1ccc(CCNC(=O)CN(C)S(=O)(=O)c2cccs2)cc1`, the cell number change was -10.1%. The AC50 under setting [2] is 0.00411 µM [rising, full curve, poor fit].

Consider `COCCNC(=O)C1=NOC(Cn2cc(C#N)c(=O)n(C)c2=O)C1` (stereo unspecified), for which the cell number change is 0.342%.

Regarding `CCCN1CCC(=O)N([C@H](COc2ccccc2)Cc2ccccc2)CC1`, the cell number change stood at 8.98%.

Regarding `OCC1(Cc2cccc(Cl)c2)CCCN(Cc2sc(N3CCCC3)nc2Cl)C1` (stereo unspecified), the cell number change was -21.2%.

With `Cc1cc(N2CCCCC2)nc2ccccc12`, the cell number change worked out at 19%.

As to `COc1ccc(COC(=O)N/N=C(\C)CC(=O)Nc2c(C)cc(C)cc2C)cc1`, the cell number change is -5.82%. Besides, the AC50 under setting [1] is 0.82 µM [rising, partial curve, poor fit]. Moreover, under setting [2], the AC50 was 3.26 µM [rising, partial curve, poor fit].

In the case of `OC1CCN(c2c3c(nc4cc(-c5ccc(F)cc5)nn24)CCC3)CC1`, the cell number change amounted to 13.2%. In addition, the AC50 under setting [2] was 11.6 µM [rising, single point].

Consider `CC1CCCCN1C(=O)CN1CCC(c2nc3ccc(Cl)cc3[nH]2)CC1` (stereo unspecified), for which the cell number change came to 12.3%.

For `CCc1ccc(S(=O)(=O)NCCc2csc(-c3ccccc3)n2)s1`, the AC50 under setting [1] is 6.51 µM [rising, single point].

As for `COc1ccc(NC(=O)CNC(=O)c2cccs2)cc1Cl`, the cell number change was -7.96%. For the same compound, the AC50 under setting [2] was 29.1 µM [falling, single point].

Take `COc1ccc(N2CCN(S(=O)(=O)CCNC(=O)/C=C/c3ccc4c(c3)OCO4)CC2)cc1`: the AC50 under setting [1] is 3.66 µM [rising, single point].

Consider `C=CCC(C=C)S(=O)(=O)c1ccc(C)cc1` (stereo unspecified), for which the cell number change is 33.7%. Also, under setting [1], the AC50 was 14.6 µM [rising, single point].

Turning to `Cc1cc(C)c2nc(SCC(=O)N(C)C3CCS(=O)(=O)C3)cc(C)c2c1` (stereo unspecified), the cell number change was found to be 43%.

As for `CC(C)(C)c1nc2scc(-c3ccc(Cl)cc3)c2c(=O)o1`, the cell number change is -8.13%. The AC50 under setting [2] is 13 µM [falling, partial curve].

For the compound `COc1ccc(CCN2C(=O)C3C(C2=O)C2C=CC3C23CC3)cc1OC` (stereo unspecified), under setting [2], the AC50 was 0.259 µM [rising, partial curve, poor fit].

For the compound `CCCCc1ccc(NC(=O)Nc2cnccn2)cc1`, the cell number change stood at 28.6%. For the same compound, the AC50 under setting [2] was 35.5 µM [rising, partial curve, poor fit].

On to `CN(C)C(=O)c1cccn1-c1ncc(C(F)(F)F)cc1Cl`, for which the cell number change is -21.1%.

Consider `O=C(NNS(=O)(=O)c1ccccc1)Nc1ccc(F)cc1`, for which the cell number change was -10.2%. The AC50 under setting [2] is 4.61 µM [rising, partial curve].
